Results of single-concentration screens

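Phenotypic screen: M. tuberculosis growth, cholesterol and DPPC medium, 4 days; the read-out is not stated. Tested at 500 µM. Higher reads as more growth inhibition (inferred: compounds with an IC50 in retests scored well above the rest). Size under these conditions: about 18,000 compounds, about 900 of them at 50% or above in at least one test.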

The filed quantity is “Percent Effect” (%).
The controls that fix the scale are not given in the record; negative values are as filed.
The compounds are a random part of those screened.

| structure | Percent Effect |
|---|---|
| `CCn1nccc1NC(=O)c1ccccc1` | 0.4336 |
| `O=C(C1CCC1)N1CCCC1c1cccnc1` (centres unmarked) | -8.842 |
| `CCCn1nnnc1Cn1c(=O)oc2ccccc21` | 20.77 |
| `CC(=O)NC(C)C(=O)N1CCCC2(CC2)C1` (centres unmarked) | 21.23 |
| `CCN(CC)C(=O)CN(C)C(=O)c1cc(C)ccc1O` | 2.914 |
| `CN1C(=O)CC(C(=O)NCCc2nccn2C)C1(C)C` (centres unmarked) | 0.08992 |
| `CC(CO)(CO)NC(=O)c1cnc(-c2cccs2)s1` | 17.99 |
| `CC(C)CCC(=O)N1CCN(CC(O)C(F)(F)F)CC1` (centres unmarked) | 50.84 |
| `CCCN1CCN(C(=O)c2c(C)nn(C)c2C)CC1` | 7.586 |
| `COCCN(CCO)C(=O)Nc1ccc(OC)cc1` | 0.08537 |
| `CC(C)CN1C(=O)C(N)c2ccccc21` (centres unmarked) | 73.41 |
| `O=C(CN1CCOC(c2ccccc2)C1)NC1CC1` (centres unmarked) | 9.638 |
| `COCc1cc(CNCC2(O)CNCCOC2)n[nH]1` (centres unmarked) | -6.966 |
| `Cn1ccc(C(=O)NCc2cccs2)cc1=O` | -15.64 |
| `CCN1CCCC1CNC(=O)c1ccc(C#N)cc1` (centres unmarked) | 5.678 |
| `COCCN(C)Cc1ccnc(N)c1` | 9.786 |
| `CN1CC(C(=O)N2CCOc3ccccc3C2)CC1=O` (centres unmarked) | 7.515 |
| `Cn1nc(-c2ccsc2)cc1N` | 7.44 |
| `COCCOCCS(=O)(=O)NCCc1ccccn1` | 12.33 |
| `NCCCn1cc(Cl)cn1` | 19.84 |
| `NCCC(=O)NC1CCS(=O)(=O)C1` (centres unmarked) | 5.918 |
| `OCC1CCN(C2CCCCC2)C1` (centres unmarked) | 24.13 |
| `NC(=O)C1(CNCc2cccc(F)c2)CCOCC1` | 5.205 |
| `NCC1CCCN1CCc1ccccc1` (centres unmarked) | 85.02 |
| `Cn1nccc1CCC(=O)N[C@@H]1COCC[C@H]1O` | 0.08156 |
| `CNC(=O)CCCNCc1c(C(C)C)nn(C)c1OC` | 6.053 |
| `CC(C)CNc1cccc(-n2cnnn2)c1` | 63.17 |
| `COCC(C)N(C)C(=O)c1cc(-c2ccc(C)s2)[nH]n1` (centres unmarked) | 8.173 |
| `CCc1cc(C(=O)N[C@H]2CC[C@@H](N)C2)cc(=O)[nH]1` | -21.81 |
| `c1csc(COC2CCNC2)n1` (centres unmarked) | -6.614 |
| `CC(C)(C)C(=O)Nc1ccc(N2CCNC(=O)C2)cc1` | -137.2 |
| `CCN(CC)C(=O)CCC1CCNCC1` | -0.3496 |
| `CN1CC2(CCCN(CCn3cc(Cl)cn3)C2)OC1=O` (centres unmarked) | 2.696 |
| `NC(=O)Cc1ccc(NC(=O)CC(F)(F)F)cc1` | -31.88 |
| `CCN(CC(C)C#N)Cn1nnc2ccccc2c1=O` (centres unmarked) | 9.442 |
| `CNC(=O)C1CCCN(C(=O)c2cncc(Br)c2)C1` (centres unmarked) | 16.69 |
| `Cc1ccnc(NCCNC(=O)C2CCOCC2)c1` | 8.348 |
| `O=C(NCc1cn2ccccc2n1)C1CCC1` | -26.15 |
| `CCCC(=O)Nc1cccc(CCC(=O)N(C)C)c1` | -7.569 |
| `O=C(CN1CCc2sccc2C1)N1CCNC1=O` | -11.18 |
| `Cc1nc(C)c(CNC(=O)c2ccnnc2)s1` | -0.8802 |
| `Cc1cccc2[nH]c(CO)cc12` | -3.611 |
| `CN1CCC(NC(=O)CSCc2cccs2)CC1` | -8.731 |

Measurements from “University of Dundee, Small-Polar-MMV Screening Library” (2021), ChEMBL document CHEMBL3988442.